Laboratory results: US20150218212A1 (FLUORINOV PHARMA INC., priority 2012, published 2015)

Assay: general procedure: solution-phase peptide synthesis; HBTU, 1-hydroxybenzotriazole hydrate, DIPEA
Details: coupling step

Substance: (2S)—N-[(1S)-1-(difluoromethoxymethyl)-2-[[(1S)-3-methyl-1-[(2R)-2-methyloxirane-2-carbonyl]butyl]amino]-2-oxo-ethyl]-2-[[(2S)-3-(difluoromethoxy)-2-[(2-morpholinoacetyl)amino]propanoyl]amino]-4-methyl-pentanamide
- step yield: 31%
